The other results are listed elsewhere or left out.
Columns and labels:
Experiment in all cases: log2 fold change, soluble protein after heating vs DMSO (PISA); higher = thermal stabilisation; K562 lysate, 10 uM; active = over 0.2 and 3.5 SD of the protein, either way, in both replicates (recomputed)
[1] = compound: c1ccc([C@@H]2C[C@H]2NC2CCNCC2)cc1
Procedure, shortened: (§1)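 To prepare the extract, K562 pellets were dounce-homogenised in PBS pH 7.4 with 1 mM MgCl2, giving crude material at 1 mg/mL protein. This was treated with 10 μM compound for 30 min, then heated in aliquots for 3 min over 48°C-58°C before pooling and addition of NP-40 to 0.5% at 4°C. Centrifugation at 21,000xg for 90 min left soluble protein in the supernatant, which TMTpro 16plex LC-MS/MS quantified with equalised channel sums. Results are log-two fold changes in thermal stability compared with solvent controls, from duplicates.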

The chains behind the UniProt entries cited, without tags or fusion partners. Where a name states a change or a piece, a line headed by the entry shows the natural chain unless it says otherwise.
UniProt O14717: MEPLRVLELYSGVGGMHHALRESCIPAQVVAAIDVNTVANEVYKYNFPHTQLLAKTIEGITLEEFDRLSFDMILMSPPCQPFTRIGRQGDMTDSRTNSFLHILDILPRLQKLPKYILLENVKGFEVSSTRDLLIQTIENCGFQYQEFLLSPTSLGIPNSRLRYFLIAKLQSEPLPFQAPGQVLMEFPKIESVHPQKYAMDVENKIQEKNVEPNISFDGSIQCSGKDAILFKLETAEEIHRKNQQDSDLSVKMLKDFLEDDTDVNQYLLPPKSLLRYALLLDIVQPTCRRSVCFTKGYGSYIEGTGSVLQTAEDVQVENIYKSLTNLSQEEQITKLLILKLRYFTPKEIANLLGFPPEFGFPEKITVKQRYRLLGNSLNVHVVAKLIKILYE
UniProt Q96LD4: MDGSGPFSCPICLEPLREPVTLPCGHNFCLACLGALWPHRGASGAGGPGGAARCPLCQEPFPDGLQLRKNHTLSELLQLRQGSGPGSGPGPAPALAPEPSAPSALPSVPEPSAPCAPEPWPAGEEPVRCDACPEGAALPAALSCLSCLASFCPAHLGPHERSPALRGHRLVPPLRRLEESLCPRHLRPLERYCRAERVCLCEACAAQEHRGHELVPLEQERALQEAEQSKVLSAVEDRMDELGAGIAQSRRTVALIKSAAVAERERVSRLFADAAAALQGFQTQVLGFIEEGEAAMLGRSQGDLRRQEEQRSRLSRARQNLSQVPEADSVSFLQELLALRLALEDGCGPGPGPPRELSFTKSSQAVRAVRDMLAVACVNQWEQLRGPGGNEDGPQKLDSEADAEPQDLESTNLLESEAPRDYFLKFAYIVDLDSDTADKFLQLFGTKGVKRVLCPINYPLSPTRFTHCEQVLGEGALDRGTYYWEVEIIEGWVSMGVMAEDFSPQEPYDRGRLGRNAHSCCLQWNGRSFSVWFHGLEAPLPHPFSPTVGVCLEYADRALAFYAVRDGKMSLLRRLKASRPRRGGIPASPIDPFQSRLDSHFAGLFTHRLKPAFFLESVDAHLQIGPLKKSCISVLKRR
UniProt P14373: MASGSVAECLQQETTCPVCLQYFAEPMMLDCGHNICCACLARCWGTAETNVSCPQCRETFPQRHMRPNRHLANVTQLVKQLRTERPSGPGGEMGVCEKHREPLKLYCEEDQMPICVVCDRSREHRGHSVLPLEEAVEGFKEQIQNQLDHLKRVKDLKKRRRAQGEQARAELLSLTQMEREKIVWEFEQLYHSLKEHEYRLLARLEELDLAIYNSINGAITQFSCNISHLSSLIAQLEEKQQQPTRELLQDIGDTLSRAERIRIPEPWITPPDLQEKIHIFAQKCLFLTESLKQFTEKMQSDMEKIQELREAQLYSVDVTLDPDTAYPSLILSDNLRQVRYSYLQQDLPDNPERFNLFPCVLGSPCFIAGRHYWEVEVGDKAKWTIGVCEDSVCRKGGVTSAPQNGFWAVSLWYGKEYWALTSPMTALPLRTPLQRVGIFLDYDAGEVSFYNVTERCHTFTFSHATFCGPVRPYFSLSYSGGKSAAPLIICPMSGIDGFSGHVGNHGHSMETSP
UniProt P53804: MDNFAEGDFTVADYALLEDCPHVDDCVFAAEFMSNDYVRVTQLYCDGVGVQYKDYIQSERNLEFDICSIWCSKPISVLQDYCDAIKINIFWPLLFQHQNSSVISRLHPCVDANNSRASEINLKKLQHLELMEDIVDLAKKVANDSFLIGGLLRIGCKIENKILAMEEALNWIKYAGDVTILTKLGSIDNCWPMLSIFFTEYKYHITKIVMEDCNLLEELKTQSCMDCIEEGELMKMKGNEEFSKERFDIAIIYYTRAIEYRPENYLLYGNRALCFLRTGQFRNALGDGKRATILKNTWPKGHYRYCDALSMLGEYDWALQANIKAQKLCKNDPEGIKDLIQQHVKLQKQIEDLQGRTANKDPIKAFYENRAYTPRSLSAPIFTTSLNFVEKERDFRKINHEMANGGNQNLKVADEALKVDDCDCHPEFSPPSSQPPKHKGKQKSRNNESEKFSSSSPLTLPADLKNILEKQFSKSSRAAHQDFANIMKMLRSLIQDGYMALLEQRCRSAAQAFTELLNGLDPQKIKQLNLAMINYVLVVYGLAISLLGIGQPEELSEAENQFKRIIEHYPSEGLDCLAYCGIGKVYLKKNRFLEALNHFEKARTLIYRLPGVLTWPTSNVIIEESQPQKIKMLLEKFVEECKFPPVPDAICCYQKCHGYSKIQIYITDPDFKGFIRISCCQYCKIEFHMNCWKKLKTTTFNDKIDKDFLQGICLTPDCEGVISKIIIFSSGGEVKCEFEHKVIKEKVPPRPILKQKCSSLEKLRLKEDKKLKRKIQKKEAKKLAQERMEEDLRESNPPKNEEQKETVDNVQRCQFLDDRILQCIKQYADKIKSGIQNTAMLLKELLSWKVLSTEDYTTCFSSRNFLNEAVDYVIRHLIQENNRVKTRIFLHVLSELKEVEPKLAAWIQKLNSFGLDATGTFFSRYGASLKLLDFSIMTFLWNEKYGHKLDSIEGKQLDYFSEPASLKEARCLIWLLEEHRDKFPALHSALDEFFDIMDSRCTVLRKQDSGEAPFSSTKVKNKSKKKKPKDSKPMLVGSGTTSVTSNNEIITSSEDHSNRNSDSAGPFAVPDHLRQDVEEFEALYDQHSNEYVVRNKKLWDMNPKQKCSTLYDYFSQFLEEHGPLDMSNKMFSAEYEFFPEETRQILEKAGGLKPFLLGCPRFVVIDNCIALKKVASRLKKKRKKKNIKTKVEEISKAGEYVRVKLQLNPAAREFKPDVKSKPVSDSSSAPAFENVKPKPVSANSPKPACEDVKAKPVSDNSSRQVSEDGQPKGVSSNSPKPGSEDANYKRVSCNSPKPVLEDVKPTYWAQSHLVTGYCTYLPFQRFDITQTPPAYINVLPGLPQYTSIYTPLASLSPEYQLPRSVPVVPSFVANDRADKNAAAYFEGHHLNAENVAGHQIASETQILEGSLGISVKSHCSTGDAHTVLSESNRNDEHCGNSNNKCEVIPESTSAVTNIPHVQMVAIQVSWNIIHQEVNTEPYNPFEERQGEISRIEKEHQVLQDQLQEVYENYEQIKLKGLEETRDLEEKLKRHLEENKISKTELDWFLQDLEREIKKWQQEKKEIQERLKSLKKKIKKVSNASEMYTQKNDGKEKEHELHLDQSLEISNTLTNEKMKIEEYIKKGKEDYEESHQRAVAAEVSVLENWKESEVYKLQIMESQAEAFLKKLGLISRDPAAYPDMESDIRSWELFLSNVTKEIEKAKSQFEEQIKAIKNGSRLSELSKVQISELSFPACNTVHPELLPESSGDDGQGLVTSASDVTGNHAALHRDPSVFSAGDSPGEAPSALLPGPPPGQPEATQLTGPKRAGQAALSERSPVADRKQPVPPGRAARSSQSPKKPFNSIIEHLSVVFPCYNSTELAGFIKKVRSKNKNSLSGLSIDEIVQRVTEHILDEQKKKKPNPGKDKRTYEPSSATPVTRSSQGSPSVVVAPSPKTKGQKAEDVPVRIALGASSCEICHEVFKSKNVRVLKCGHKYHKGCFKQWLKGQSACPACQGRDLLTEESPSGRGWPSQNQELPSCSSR
UniProt Q9Y5S1: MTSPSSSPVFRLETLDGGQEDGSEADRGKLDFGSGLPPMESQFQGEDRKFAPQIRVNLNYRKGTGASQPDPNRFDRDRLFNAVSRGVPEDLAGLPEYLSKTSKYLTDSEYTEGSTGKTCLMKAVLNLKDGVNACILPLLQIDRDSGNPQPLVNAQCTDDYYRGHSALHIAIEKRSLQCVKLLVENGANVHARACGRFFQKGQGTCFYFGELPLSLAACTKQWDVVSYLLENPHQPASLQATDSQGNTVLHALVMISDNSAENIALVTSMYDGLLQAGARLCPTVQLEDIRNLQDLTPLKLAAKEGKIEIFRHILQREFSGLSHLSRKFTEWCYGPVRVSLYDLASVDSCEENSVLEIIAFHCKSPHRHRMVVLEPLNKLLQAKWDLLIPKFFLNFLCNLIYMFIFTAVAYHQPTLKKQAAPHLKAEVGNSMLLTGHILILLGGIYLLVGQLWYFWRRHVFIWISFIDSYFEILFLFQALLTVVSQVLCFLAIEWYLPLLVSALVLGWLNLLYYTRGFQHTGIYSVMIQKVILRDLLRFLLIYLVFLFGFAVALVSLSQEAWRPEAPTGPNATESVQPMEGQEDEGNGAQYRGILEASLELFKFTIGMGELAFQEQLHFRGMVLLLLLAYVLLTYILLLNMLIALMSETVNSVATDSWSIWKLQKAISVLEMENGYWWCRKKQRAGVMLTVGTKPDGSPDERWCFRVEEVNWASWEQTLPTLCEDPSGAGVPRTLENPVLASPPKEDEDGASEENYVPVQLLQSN
UniProt O43617, whole entry, looked up: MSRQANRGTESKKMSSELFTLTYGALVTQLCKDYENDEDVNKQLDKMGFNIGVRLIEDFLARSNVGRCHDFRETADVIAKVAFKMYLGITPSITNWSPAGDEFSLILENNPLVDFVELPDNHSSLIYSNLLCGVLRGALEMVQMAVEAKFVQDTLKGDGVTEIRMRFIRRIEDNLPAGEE
UniProt Q9UHF7: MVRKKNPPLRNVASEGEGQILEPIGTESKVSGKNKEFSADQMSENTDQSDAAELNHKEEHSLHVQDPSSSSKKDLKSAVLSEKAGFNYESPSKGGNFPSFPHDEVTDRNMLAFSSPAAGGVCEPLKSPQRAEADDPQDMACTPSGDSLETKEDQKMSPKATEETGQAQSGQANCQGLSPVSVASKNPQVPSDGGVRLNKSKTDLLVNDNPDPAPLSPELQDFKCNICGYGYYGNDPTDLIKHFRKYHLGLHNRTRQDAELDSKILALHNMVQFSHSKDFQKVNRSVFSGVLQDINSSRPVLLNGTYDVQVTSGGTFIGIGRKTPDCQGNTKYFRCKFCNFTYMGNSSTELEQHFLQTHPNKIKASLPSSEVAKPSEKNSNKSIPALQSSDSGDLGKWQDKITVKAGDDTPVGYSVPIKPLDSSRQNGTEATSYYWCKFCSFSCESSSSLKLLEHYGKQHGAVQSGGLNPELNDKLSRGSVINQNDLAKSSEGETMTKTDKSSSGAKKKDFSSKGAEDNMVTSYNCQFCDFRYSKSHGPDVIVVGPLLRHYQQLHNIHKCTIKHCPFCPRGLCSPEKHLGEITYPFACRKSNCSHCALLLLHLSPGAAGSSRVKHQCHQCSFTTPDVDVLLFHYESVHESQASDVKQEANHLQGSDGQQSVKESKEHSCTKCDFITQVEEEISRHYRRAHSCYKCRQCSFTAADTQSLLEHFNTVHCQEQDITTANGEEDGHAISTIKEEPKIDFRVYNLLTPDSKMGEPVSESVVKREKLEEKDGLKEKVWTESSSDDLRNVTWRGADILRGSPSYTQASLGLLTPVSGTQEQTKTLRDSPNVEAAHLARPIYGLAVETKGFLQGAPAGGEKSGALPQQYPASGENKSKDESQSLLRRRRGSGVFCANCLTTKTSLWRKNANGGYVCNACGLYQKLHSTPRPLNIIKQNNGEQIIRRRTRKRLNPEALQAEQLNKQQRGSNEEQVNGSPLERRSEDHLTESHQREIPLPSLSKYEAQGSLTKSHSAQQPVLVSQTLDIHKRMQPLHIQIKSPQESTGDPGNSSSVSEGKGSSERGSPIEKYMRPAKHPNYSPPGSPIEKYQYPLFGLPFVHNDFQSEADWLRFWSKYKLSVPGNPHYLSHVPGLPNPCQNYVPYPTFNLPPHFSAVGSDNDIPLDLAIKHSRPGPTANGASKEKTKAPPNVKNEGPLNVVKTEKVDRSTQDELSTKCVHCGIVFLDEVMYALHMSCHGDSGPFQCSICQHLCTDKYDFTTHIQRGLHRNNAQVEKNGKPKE
UniProt Q12933: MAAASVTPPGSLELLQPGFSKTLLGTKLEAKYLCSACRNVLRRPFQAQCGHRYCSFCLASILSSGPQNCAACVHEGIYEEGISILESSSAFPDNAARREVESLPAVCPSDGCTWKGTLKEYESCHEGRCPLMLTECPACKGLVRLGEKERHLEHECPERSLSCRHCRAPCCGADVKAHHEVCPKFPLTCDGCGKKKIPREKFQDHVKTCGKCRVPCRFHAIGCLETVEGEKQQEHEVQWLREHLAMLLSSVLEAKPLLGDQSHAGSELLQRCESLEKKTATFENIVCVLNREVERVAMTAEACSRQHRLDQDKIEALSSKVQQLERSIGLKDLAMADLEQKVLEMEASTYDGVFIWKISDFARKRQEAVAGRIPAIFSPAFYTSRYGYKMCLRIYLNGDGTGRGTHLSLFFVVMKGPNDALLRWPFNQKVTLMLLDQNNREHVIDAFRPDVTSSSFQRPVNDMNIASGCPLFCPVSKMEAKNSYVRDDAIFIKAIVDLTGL

[2] = compound: CC1=C2C(=CC=C1)N=C(N(C2=O)C3=CC=CC=C3C)CN4C=NC5=C(N=CN=C54)N
Procedure, shortened: as §1

[3] = compound: Cc1sc2c(c1C)C(c1ccc(Cl)cc1)=N[C@@H](CC(=O)OC(C)(C)C)c1nnc(C)n1-2
Procedure, shortened: as §1

[4] = compound: C1=CC=C(C=C1)[C@H](COC2=CC3=C(C=C2)NC(=O)N3)NC(=O)C4=CC=CN(C4=O)CC5=CC(=C(C=C5)F)F
Procedure, shortened: as §1

[5] = compound: CC1=C(SC2=C1C(=N[C@H](C3=NN=C(N32)C)CC(=O)N)C4=CC=C(C=C4)Cl)C
Procedure, shortened: as §1

Measured: log2 fold change

TTC17 isoform 2 (UniProt Q96AE7)
inactive: [1] -0.078

TRDMT1 (UniProt O14717)
inactive: [2] -0.224 | [3] -0.177

TRIM47 (UniProt Q96LD4)
inactive: [2] 0.032 | [3] -0.193 | [1] -0.012

TRIM16 (UniProt O95361)
inactive: [3] -0.108

TRIM27 (UniProt P14373)
inactive: [4] 0.01 | [5] -0.011 | [2] 0.022 | [1] -0.087

TTC3 (UniProt P53804)
inactive: [3] 0.072

TTLL12 (UniProt V9GY16)
inactive: [4] 0.022 | [5] 0.606 | [2] 0.066 | [1] -0.065

TRPM4 (UniProt Q8TD43)
inactive: [4] -0.074 | [5] 0.114 | [3] -0.042 | [1] -0.354

TRPV2 (UniProt Q9Y5S1)
inactive: [4] 0.041 | [5] -0.017 | [2] 0.019 | [3] 0.013 | [1] -0.048

TRAPPC3 (UniProt O43617)
inactive: [4] -0.008 | [5] -0.032 | [2] -0.027 | [3] 0.01 | [1] 0.016

TRPS1 isoform 2 (UniProt Q9UHF7)
inactive: [3] 0.078 | [1] -0.404

TRAF2 isoform 2 (UniProt Q12933)
inactive: [4] -0.006 | [5] 0.005 | [2] -0.005 | [3] -0.002 | [1] -0.015
